Some results were stated once for a whole list of compounds, not compound by compound.
tested on: p16-3MR mice; assay: ROC analysis of discriminatory power of circulating microRNAs; type: in vivo, mouse; parameters: unit not given beside the values; conditions: senescence and senolytic treatment
Procedure: Statistical analysis was performed using Medcalc (version 18.2.1). Normal distribution was assessed using D'Agostino-Pearson test, where normality was accepted at p>0.05. One-way ANOVA together together with Student-Newman-Keuls test for all pairwise comparisons (post-hoc tests) was used to identify significant changes between groups (p<0.05). To assess the discriminatory power of individual microRNAs, receiver operating characteristic (ROC) analysis was applied. ROC curves were plotted using sensitivity (y-axis) and 1-specificity (x-axis) and the area under the ROC curve (AUC) was calculated. MicroRNAs with AUC-values of >0.7 were considered as good discriminators/biomarkers. MicroRNAs with AUC-values >0.8 were considered very good discriminators/biomarkers.
In order to assess the diagnostic power of circulating microRNAs for the exposure with senescence inducing substances (DOX) as well as the efficacy of senolytic treatment, ROC analysis was performed and the area-under-the-curve (AUC) was calculated. […] Table 23 below summarizes AUC values as well as 95% confidence intervals for 24 selected circulating microRNAs.

AUC, very good discriminators of senescence, > 0.8:
miR-199a-5p: circulating microRNA biomarker, SEQ ID No. 81 (CCCAGUGUUCAGACUACCUGUUC; expressed or natural sequence; listed as Homo sapiens)
miR-125a-5p: circulating microRNA biomarker, SEQ ID No. 90 (UCCCUGAGACCCUUUAACCUGUGA; expressed or natural sequence; listed as Homo sapiens)
miR-345-5p: circulating microRNA biomarker, SEQ ID No. 83 (GCUGACUCCUAGUCCAGGGCUC; expressed or natural sequence; listed as Homo sapiens)

Reference: patent US11814680B2, “Biomarkers for detecting senescent cells” (Universität für Bodenkultur Wien, priority 2017, dated 2023)
